Results deposited as PubChem BioAssay AID504774 (Drosophila RNAi Screening Center, 2011).
In all, the deposit lists about 23,000 reagents; below is an unselected part of those with a known target gene and a result. 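Values are quantile-normalised luminescence on an arbitrary scale; higher means more cells surviving MMS.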 The numbers tell different reagents against one gene apart. Names joined by + are all predicted targets of the reagent. Further read-outs or replicates are left out here.

Screen: 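Knock-downs that shift viability of MMS-exposed cells relative to untreated ones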 (primary screen)
System: Drosophila Kc167 cells
Knock-down reagent: long dsRNA against Drosophila genes, about 0.25 µg dsRNA per well
Time to read-out: about 6 days: 3 days knock-down, then 3 days with or without MMS
Challenge: methyl methanesulphonate 0.004% (w/v) for 3 days after knock-down
Measured: 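Viability in wells given MMS, read as ATP luminescence, normalised by quantiles plate by plate and averaged across replicates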
Direction: mean viability with MMS: higher = more surviving cells after MMS

mean viability with MMS, by target gene and reagent
CG30048: #1 3.52e6
CG1951: #1 3.47e6
Cyp6w1 (Cytochrome P450 6w1): #1 3.55e6
Prosbeta7 (Proteasome beta7 subunit): #1 3.24e6
Myb (Myb oncogene-like): #1 3.37e6
Eig71Ed (Ecdysone-induced gene 71Ed): #1 3.64e6
Poxm (Pox meso): #1 3.64e6; #2 3.56e6
Plc21C (Phospholipase C at 21C): #1 3.32e6
CG18343: #1 3.42e6
CG4849: #1 3.31e6
Tep1 (Thioester-containing protein 1): #1 3.46e6
CG3987: #1 3.49e6
ScsbetaA (Succinyl-coenzyme A synthetase beta subunit, ADP-forming): #1 3.64e6
Lime (Linking immunity and metabolism): #1 3.33e6
CG30471: #1 3.69e6
CG42516 + Pbp49: #1 3.64e6
ZnT63C (Zinc transporter 63C): #1 3.46e6; #2 3.50e6; #3 3.86e6; #4 3.39e6
CG2685: #1 3.04e6
CG42397: #1 3.56e6
CG9951: #1 3.65e6
CG13295: #1 3.54e6

Looked up above.
Tep1 (Thioester-containing protein 1), mean viability with MMS = 3.46e6
Poxm (Pox meso) #2, mean viability with MMS: 3.56e6
CG2685, mean viability with MMS → 3.04e6
Value for Cyp6w1 (Cytochrome P450 6w1) in “mean viability with MMS”: 3.55e6
Under “mean viability with MMS”, CG4849 is entered as 3.31e6
Entry for Poxm (Pox meso) #1 in “mean viability with MMS”: 3.64e6

The list goes on:
mean viability with MMS, by target gene and reagent
RpL34a (Ribosomal protein L34a): #1 3.55e6
CG13739: #1 3.20e6; #2 3.81e6
Sf3b6 (Splicing factor 3b subunit 6): #1 3.19e6
UQCR-C2 (Ubiquinol-cytochrome c reductase core protein 2): #1 3.46e6
Dh44-R2 (Diuretic hormone 44 receptor 2): #1 3.55e6; #2 3.60e6
lncRNA:iab4 (long non-coding RNA:iab4): #1 3.49e6
Setx (Senataxin): #1 3.28e6
CG2233: #1 3.57e6
CCAP (Crustacean cardioactive peptide): #1 3.52e6
Nopp140: #1 3.41e6
CG31391: #1 3.61e6
sala (spalt-adjacent): #1 3.47e6
Tpst (Tyrosylprotein sulfotransferase): #1 3.44e6; #2 3.55e6; #3 3.66e6; #4 2.89e6; #5 2.77e6
Pi4KIIalpha (Phosphatidylinositol 4-kinase II alpha): #1 3.74e6; #2 3.62e6
CG12091: #1 3.58e6
galla-2: #1 3.66e6; #2 3.41e6
CG12061: #1 3.50e6
AIMP2 (aaRS-interacting multifunctional protein 2): #1 3.62e6
whe (what else): #1 3.56e6
Sgs3 (Salivary gland secretion 3): #1 3.54e6
CG13930: #1 3.53e6
CG10866: #1 3.59e6
bip1: #1 3.48e6
CG6144: #1 1.74e6
LpR2 (Lipophorin receptor 2): #1 3.67e6; #2 3.67e6; #3 3.58e6; #4 3.57e6
Tengl4 (Testis EndoG-Like 4): #1 3.51e6
Lipt2 (Lipoyl(octanoyl) transferase 2): #1 3.53e6; #2 3.55e6
CG5024: #1 3.63e6
CG33791 + CG18170: #1 3.56e6; #2 3.54e6
CG30334: #1 3.49e6
